This note sets out measurements from PMC11942402.

Chains of the proteins cited; added tags and fusions are not shown.
UniProt Q04207: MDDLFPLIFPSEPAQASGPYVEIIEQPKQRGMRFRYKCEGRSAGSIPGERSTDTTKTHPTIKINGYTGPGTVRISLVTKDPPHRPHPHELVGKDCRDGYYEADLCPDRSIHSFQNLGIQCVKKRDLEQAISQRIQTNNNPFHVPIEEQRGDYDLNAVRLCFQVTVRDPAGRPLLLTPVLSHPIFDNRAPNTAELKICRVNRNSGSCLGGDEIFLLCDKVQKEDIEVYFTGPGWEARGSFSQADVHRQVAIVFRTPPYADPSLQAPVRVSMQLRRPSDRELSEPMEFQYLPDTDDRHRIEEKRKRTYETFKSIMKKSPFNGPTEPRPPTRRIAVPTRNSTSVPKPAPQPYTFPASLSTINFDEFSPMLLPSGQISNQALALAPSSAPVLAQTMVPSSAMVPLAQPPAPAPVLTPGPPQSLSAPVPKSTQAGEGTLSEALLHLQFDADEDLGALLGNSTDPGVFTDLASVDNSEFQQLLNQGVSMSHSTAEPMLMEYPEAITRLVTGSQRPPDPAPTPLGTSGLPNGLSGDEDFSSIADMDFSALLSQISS
UniProt P01101: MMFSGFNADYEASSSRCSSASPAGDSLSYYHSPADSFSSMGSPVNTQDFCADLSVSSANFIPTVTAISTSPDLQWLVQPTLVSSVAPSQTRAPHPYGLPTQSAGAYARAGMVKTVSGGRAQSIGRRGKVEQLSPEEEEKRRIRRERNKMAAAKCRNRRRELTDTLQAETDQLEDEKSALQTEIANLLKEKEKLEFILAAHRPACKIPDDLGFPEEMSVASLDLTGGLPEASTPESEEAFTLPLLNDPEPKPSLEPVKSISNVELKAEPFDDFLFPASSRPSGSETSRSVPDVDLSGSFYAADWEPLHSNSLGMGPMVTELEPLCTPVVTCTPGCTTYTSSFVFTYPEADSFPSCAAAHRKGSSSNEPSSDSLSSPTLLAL

This assay deals with NF-κB p65 (mouse (endogenous in BV-2)) (UniProt Q04207). In words: co-IP; BV-2 microglia treated with NA (3 µM) and Pg LPS (30 µg/mL); cell lysates (1 mg protein) immunoprecipitated with rabbit anti-NF-κB p65 antibodies (Pierce co-immunoprecipitation kit), normal IgG as control; Western blot with anti-c-Fos and anti-p65. Background: In western blotting, separated proteins are transferred to a membrane and probed.

Results are given in words; binding and its absence hold for the method and conditions named. In cells and extracts the contact can be indirect. Some binding calls cover weakened binding; strength is not graded here.

Take AP-1 c-Fos (from UniProt P01101 1-380): the binding entry is given as “binds”.
